In patent publication US10172835B2, “Anticancer agent composition” (J-Pharma Co., Ltd., priority 2014, dated 2019):

B1: Erw: enzyme that can degrade extracellular asparagine, with higher glutaminase activity (protein, UniProt P06608 22-348, looked up)
L-asparaginase: ADKLPNIVILATGGTIAGSAATGTQTTGYKAGALGVDTLINAVPEVKKLANVKGEQFSNMASENMTGDVVLKLSQRVNELLARDDVDGVVITHGTDTVEESAYFLHLTVKSDKPVVFVAAMRPATAISADGPMNLLEAVRVAGDKQSRGRGVMVVLNDRIGSARYITKTNASTLDTFKANEEGYLGVIIGNRIYYQNRIDKLHTTRSVFDVRGLTSLPKVDILYGYQDDPEYLYDAAIQHGVKGIVYAGMGAGSVSVRGIAGMRKAMEKGVVVIRSTRTGNGIVPPDEELPGLVSDSLNPAHARILLMLALTRTSDPKVIQEYFHTY

Test system: CHOP
Experiment: Western blot of CHOP protein levels, KO99L cells
Type: cell-based, murine
Conditions: COMPOUND-JP 10.0 μM; Erw 2.5 units/ml
Procedure: Cell extracts were prepared using a cell lysis buffer (50 mM HEPES, pH 7.4, 150 mM NaCl, 20 mM EDTA, 100 mM NaF, 10 mM Na3VO4, 0.5% nonyl phenoxypolyethoxylethanol (NP40) supplemented with a cocktail of protease inhibitors. After SDS-PAGE separation and transfer to nitrocellulose immunoblotting was performed using the following antibodies against: Akt (Cell Signaling Technologies, #9272), CHOP (#2895), cleaved caspase 3 (#9664), c-Myc (#9402), eIF2a (#9721), 4EBP1 (#9644), LC3A/B (#12741), PARP (#9542), pJnk (T183/Y185) (#9251), pSer235-236-S6RP (#4856), pSer473-Akt (#9271), pSer65-4EBP1 (#9451) and S6RP (#2217); Bax (Sigma-Aldrich, B8429); PUMA (Abcam, ab54288); Bak (Millipore, 06536); ATF4 (Santa Cruz Biotechnologies, sc200), GADD34 (sc8327), Hsp60 (sc-1722), Hsp90 (sc-13119) and XBP1 (sc-7160); ATF6 (Imgenex, IMG-273).

Molecule | time of maximal CHOP expression [h]
Nc1cc(COc2c(Cl)cc(C[C@H](N)C(=O)O)cc2Cl)c2oc(-c3ccccc3)nc2c1 [COMPOUND-JP, O-(5-amino-2-phenylbenzoxazole-7-yl)methyl-3,5-dichloro-L-tyrosine] | 6.0
B1 | 6.0
